Assay results reported in article PMC7216740.
Results are given in words; binding and its absence hold for the method and conditions named. Binding seen in cells or lysates may run through a third protein. Binding calls can cover weak binding; strength is not graded here. Sequences can lack the tags named with a protein.

Biological target: HBV large envelope protein (LHB) N146A deglycosylation mutant, C-terminal flag tag (hepatitis B virus (genotype D))
Assay: co-IP; HEK293T cells co-transfected, harvested 48 h post-transfection; lysate incubated with anti-flag antibody conjugated to protein G beads at 4°C for 4 h; co-IP products analysed by immunoblotting

B1: serine incorporator 5 (SERINC5), C-terminal HA tag (protein, UniProt Q86VE9-4 1-461)
chain: MSAQCCAGQLACCCGSAGCSLCCDCCPRIRQSLSTRFMYALYFILVVVLCCIMMSTTVAHKMKEHIPFFEDMCKGIKAGDTCEKLVGYSAVYRVCFGMACFFFIFCLLTLKINNSKSCRAHIHNGFWFFKLLLLGAMCSGAFFIPDQDTFLNAWRYVGAVGGFLFIGIQLLLLVEFAHKWNKNWTAGTASNKLWYASLALVTLIMYSIATGGLVLMAVFYTQKDSCMENKILLGVNGGLCLLISLVAISPWVQNRQPHSGLLQSGVISCYVTYLTFSALSSKPAEVVLDEHGKNVTICVPDFGQDLYRDENLVTILGTSLLIGCILYSCLTSTTRSSSDALQGRYAAPELEIARCCFCFSPGGEDTEEQQPGKEGPRVIYDEKKGTVYIYSYFHFVFFLASLYVMMTVTNWFNYESANIESFFSGSWSIFWVKMASCWICVLLYLCTLVAPLCCPTREFSV
  binding: binds
